From patent publication US9517222B2, “Method for the treatment of senile dementia of the Alzheimer's type” (Phenomenome Discoveries Inc., priority 2007, dated 2016)

Key:
[1] = Serum ethanolamine phospholipid ratios to PtdEt 16:0/18:0 (M01) in human cohorts
[2] = Serum ethanolamine phospholipid levels in human cohorts (dementia severity, post-mortem pathology, age) by flow-injection MS/MS
[3] = serum, females, post mortem SDAT
[4] = serum, females, post mortem control

Structure (SMILES): CCCCC/C=C\C/C=C\C/C=C\C/C=C\CCCC(=O)OC(CO/C=C\CCCCCCCCCCCCCC)COP(=O)(O)OCCN (centres unmarked) [Metabolite M17, Plasmenyl 16:0/20:4]
- Ratio of ethanolamine phospholipid ratios to M01 between cohorts ([1]; AD, All to CN, Male): 0.611
- Ratio of ethanolamine phospholipid ratios to M01 between cohorts ([1]; ADAS 5-19 to CN, Male): 0.679
- Ratio of ethanolamine phospholipid ratios to M01 between cohorts ([1]; ADAS 20-39 to CN, Male): 0.595
- Ratio of ethanolamine phospholipid ratios to M01 between cohorts ([1]; ADAS 40-70 to CN, Male): 0.520
- Average serum ethanolamine phospholipid ratio to M01, Mean ([1]; Cognitive Normal, Male, serum): 4.203
- Average serum ethanolamine phospholipid ratio to M01, Mean ([1]; SDAT, ADAS 5-19, Male, serum): 2.853
- Average serum ethanolamine phospholipid ratio to M01, Mean ([1]; SDAT, ADAS 20-39, Male, serum): 2.501
- Average serum ethanolamine phospholipid ratio to M01, Mean ([1]; SDAT, ADAS 40-70, Male, serum): 2.187
- Average serum ethanolamine phospholipid ratio to M01, Mean ([1]; SDAT_all, Male, serum): 2.569
- Ethanolamine Phospholipid Ratio to M01, Mean, Age Ctl, 30-39, Female ([1]; human serum, females aged 30-39): 4.055
- Ethanolamine Phospholipid Ratio to M01, Mean, Age Ctl, 40-49, Female ([1]; human serum, females aged 40-49): 4.149
- Ethanolamine Phospholipid Ratio to M01, Mean, Age Ctl, 50-59, Female ([1]; human serum, females aged 50-59): 3.987
- Ratio of Ethanolamine Phospholipid Ratio to M01, 50-59 vs. 40-49, Female ([1]; human serum, females aged 50-59 vs. females aged 40-49): 0.961
- Ethanolamine Phospholipid Ratio to M01, Mean, Age Ctl, 60-69, Female ([1]; human serum, females aged 60-69): 2.963
- Ratio of Ethanolamine Phospholipid Ratio to M01, 60-69 vs. 40-49, Female ([1]; human serum, females aged 60-69 vs. females aged 40-49): 0.714
- Ethanolamine Phospholipid Ratio to M01, Mean, Age Ctl, 70+_Female ([1]; human serum, females aged 70+): 3.010
- Ratio of Ethanolamine Phospholipid Ratio to M01, 70+ vs. 40-49, Female ([1]; human serum, females aged 70+ vs. females aged 40-49): 0.726
- Ratio of Ethanolamine Phospholipid Ratio to M01, 50-59 vs. 40-49, Male ([1]; human serum, males aged 50-59 vs. males aged 40-49): 1.258
- Ratio of Ethanolamine Phospholipid Ratio to M01, 60-69 vs. 40-49, Male ([1]; human serum, males aged 60-69 vs. males aged 40-49): 1.001
- Ratio of Ethanolamine Phospholipid Ratio to M01, 70+ vs. 40-49, Male ([1]; human serum, males aged 70+ vs. males aged 40-49): 1.004
- Ratio of ethanolamine phospholipid ratio to M01, ADAS 5-19 to CN, Female ([1]; serum, females, ADAS 5-19 vs cognitive normal): 0.851
- Ratio of ethanolamine phospholipid ratio to M01, ADAS 20-39 to 5-19, Female ([1]; serum, females, ADAS 20-39 vs ADAS 5-19): 0.924
- Ratio of ethanolamine phospholipid ratio to M01, ADAS 20-39 to CN, Female ([1]; serum, females, ADAS 20-39 vs cognitive normal): 0.786
- Ratio of ethanolamine phospholipid ratio to M01, ADAS 40-70 to 5-19, Female ([1]; serum, females, ADAS 40-70 vs ADAS 5-19): 0.711
- Ratio of ethanolamine phospholipid ratio to M01, ADAS 40-70 to 20-39, Female ([1]; serum, females, ADAS 40-70 vs ADAS 20-39): 0.769
- Ratio of ethanolamine phospholipid ratio to M01, ADAS 40-70 to CN, Female ([1]; serum, females, ADAS 40-70 vs cognitive normal): 0.605
- Ethanolamine phospholipid ratio to M01, Mean, SDAT, ADAS 5-19, Female ([1]; serum, females, SDAT ADAS 5-19): 2.976
- Ethanolamine phospholipid ratio to M01, Mean, SDAT, ADAS 20-39, Female ([1]; serum, females, SDAT ADAS 20-39): 2.750
- Ethanolamine phospholipid ratio to M01, Mean, SDAT, ADAS 40-70, Female ([1]; serum, females, SDAT ADAS 40-70): 2.115
- Ratio of ethanolamine phospholipid ratio to M01, AD, All to CN, Female ([1]; serum, females, all AD vs cognitive normal): 0.742
- Ethanolamine phospholipid ratio to M01, Mean, SDAT_all Female ([1]; serum, females, all SDAT): 2.593
- Ratio of ethanolamine phospholipid ratio to M01, Autopsy AD vs. Control, Female ([1]; serum, females, autopsy AD vs post mortem control): 0.848
- Ethanolamine phospholipid ratio to M01, Mean, Cognitive Normal, Female ([1]; serum, females, cognitive normal): 3.497
- Ethanolamine phospholipid ratio to M01, Mean, Post Mortem SDAT Female [1, 3]: 0.591
- Ethanolamine phospholipid ratio to M01, Mean, Post Mortem Ctl, Female [1, 4]: 0.697
- Ratio of ethanolamine phospholipid ratio to M01, ADAS 20-39 to 5-19, Male ([1]; serum, males, SDAT ADAS 20-39 vs ADAS 5-19): 0.877
- Ratio of ethanolamine phospholipid ratio to M01, ADAS 40-70 to 5-19, Male ([1]; serum, males, SDAT ADAS 40-70 vs ADAS 5-19): 0.767
- Ratio of ethanolamine phospholipid ratio to M01, ADAS 40-70 to 20-39, Male ([1]; serum, males, SDAT ADAS 40-70 vs ADAS 20-39): 0.875
- Ethanolamine phospholipid ratio to M01, Mean, Age Ctl, 30-39, Male ([1]; serum, males, age control 30-39): 4.127
- Ethanolamine phospholipid ratio to M01, Mean, Age Ctl, 40-49, Male ([1]; serum, males, age control 40-49): 3.164
- Ethanolamine phospholipid ratio to M01, Mean, Age Ctl, 50-59, Male ([1]; serum, males, age control 50-59): 3.980
- Ethanolamine phospholipid ratio to M01, Mean, Age Ctl, 60-69, Male ([1]; serum, males, age control 60-69): 3.167
- Ethanolamine phospholipid ratio to M01, Mean, Age Ctl, 70+_Male ([1]; serum, males, age control 70+): 3.178
- Ethanolamine phospholipid ratio to M01, Mean, Post Mortem SDAT Male ([1]; serum, males, post mortem SDAT): 0.561
- Ratio of ethanolamine phospholipid ratio to M01, SDAT vs Control (post mortem, males) ([1]; serum, males, post mortem SDAT vs post mortem control): 0.660
- Ethanolamine phospholipid ratio to M01, Mean, Post Mortem Ctl, Male ([1]; serum, males, post mortem control): 0.849
- Ratio of serum levels ([2]; AD, All to CN, Male): 0.644
- Ratio of serum levels ([2]; ADAS 5-19 to CN, Male): 0.718
- Ratio of serum levels ([2]; ADAS 20-39 to 5-19, Male): 0.865
- Ratio of serum levels ([2]; ADAS 20-39 to CN, Male): 0.621
- Ratio of serum levels ([2]; ADAS 40-70 to 5-19, Male): 0.716
- Ratio of serum levels ([2]; ADAS 40-70 to 20-39, Male): 0.828
- Ratio of serum levels ([2]; ADAS 40-70 to CN, Male): 0.515
- Serum level, Mean ([2]; Cognitive Normal, Female): 0.408
- Average serum level, Mean ([2]; Cognitive Normal, Male): 0.470
- Serum level, Mean ([2]; Post Mortem Ctl, Male): 0.097
- Serum level, Mean ([2]; Post Mortem SDAT Male): 0.047
- Ratio of serum levels ([2]; Post mortem SDAT vs Control, Male): 0.489
- Serum level, Mean ([2]; SDAT, ADAS 5-19, Female): 0.317
- Average serum level, Mean ([2]; SDAT, ADAS 5-19, Male): 0.338
- Serum level, Mean ([2]; SDAT, ADAS 20-39, Female): 0.304
- Average serum level, Mean ([2]; SDAT, ADAS 20-39, Male): 0.292
- Serum level, Mean ([2]; SDAT, ADAS 40-70, Female): 0.247
- Average serum level, Mean ([2]; SDAT, ADAS 40-70, Male): 0.242
- Serum level, Mean ([2]; SDAT_all, Female): 0.288
- Average serum level, Mean ([2]; SDAT_all, Male): 0.302
- Ratio, ADAS 5-19 to CN, Female ([2]; serum level ratio, females, ADAS 5-19 vs CN): 0.776
- Ratio, ADAS 20-39 to 5-19, Female ([2]; serum level ratio, females, ADAS 20-39 vs ADAS 5-19): 0.960
- Ratio, ADAS 20-39 to CN, Female ([2]; serum level ratio, females, ADAS 20-39 vs CN): 0.745
- Ratio, ADAS 40-70 to 5-19, Female ([2]; serum level ratio, females, ADAS 40-70 vs ADAS 5-19): 0.779
- Ratio, ADAS 40-70 to 20-39, Female ([2]; serum level ratio, females, ADAS 40-70 vs ADAS 20-39): 0.812
- Ratio, ADAS 40-70 to CN, Female ([2]; serum level ratio, females, ADAS 40-70 vs CN): 0.605
- Ratio, 50-59 vs. 40-49, Female ([2]; serum level ratio, females, age 50-59 vs 40-49): 0.856
- Ratio, 60-69 vs. 40-49, Female ([2]; serum level ratio, females, age 60-69 vs 40-49): 0.773
- Ratio, 70+ vs. 40-49, Female ([2]; serum level ratio, females, age 70+ vs 40-49): 0.786
- Ratio, AD, All to CN, Female ([2]; serum level ratio, females, all AD vs cognitively normal): 0.705
- Ratio, Autopsy AD vs. Control, Female ([2]; serum level ratio, females, autopsy AD vs control): 0.592
- Ratio, 50-59 vs. 40-49, Male ([2]; serum level ratio, males, age 50-59 vs 40-49): 1.291
- Ratio, 60-69 vs. 40-49, Male ([2]; serum level ratio, males, age 60-69 vs 40-49): 1.241
- Ratio, 70+ vs. 40-49, Male ([2]; serum level ratio, males, age 70+ vs 40-49): 1.235
- Mean serum level, Age Ctl, 30-39, Female ([2]; serum, females, age 30-39): 0.419
- Mean serum level, Age Ctl, 40-49, Female ([2]; serum, females, age 40-49): 0.458
- Mean serum level, Age Ctl, 50-59, Female ([2]; serum, females, age 50-59): 0.392
- Mean serum level, Age Ctl, 60-69, Female ([2]; serum, females, age 60-69): 0.354
- Mean serum level, Age Ctl, 70+, Female ([2]; serum, females, age 70+): 0.360
- Mean serum level, Post Mortem SDAT, Female [2, 3]: 0.067
- Mean serum level, Post Mortem Ctl, Female [2, 4]: 0.113
- Mean serum level, Age Ctl, 30-39, Male ([2]; serum, males, age 30-39): 0.489
- Mean serum level, Age Ctl, 40-49, Male ([2]; serum, males, age 40-49): 0.332
- Mean serum level, Age Ctl, 50-59, Male ([2]; serum, males, age 50-59): 0.429
- Mean serum level, Age Ctl, 60-69, Male ([2]; serum, males, age 60-69): 0.412
- Mean serum level, Age Ctl, 70+, Male ([2]; serum, males, age 70+): 0.410

Where no unit stands, none is given here, and values compare only within one read-out.
